# Measured values taken from patent US20250277208A1, “Method of Peptide Library Construction and Peptides Thereof” (Alcamena Stem Cell Therapeutics, LLC, priority 2024, published 2025).
# Protein sequences, listed by entry. Tags and fused reporters are not part of them. Residues count along the entry.
# UniProt P05231, 30-212: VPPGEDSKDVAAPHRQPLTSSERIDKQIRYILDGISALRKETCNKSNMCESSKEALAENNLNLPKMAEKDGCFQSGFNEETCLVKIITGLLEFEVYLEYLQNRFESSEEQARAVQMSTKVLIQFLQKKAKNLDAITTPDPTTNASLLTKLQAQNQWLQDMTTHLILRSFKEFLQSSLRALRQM
# Where two headings read alike, the source gives them in different places. Part of at least one peptide drawing is inferred or uncertain, most often the ends. Some compounds share one wording; it may come from a single statement. At least one compound was matched to its structure with a doubt left. Ends that are not written are not given here.
# Target: T1, IL-6 (Homo sapiens, UniProt P05231)
# T1 construct: purchased R&D Systems BT7270B
# Assay: Biacore surface plasmon resonance binding of peptides to immobilised IL-6
# Settings: for binding affinity compared with parent peptide 9, in words: termini not protected
# Description: Two DNA fragments were amplified from a synthetic fragment of the IL-6R. The 5′ fragment was amplified with forward primer and a mixture of 432 reverse primers, each containing an overhang of 6 codons. The 3′ fragment was amplified with a mixture of 432 forward primers, also containing overhangs of six degenerate codons and the reverse primer. Either the first or the second nucleotide of each codon was replaced with a degenerate base. Following PCR amplification, DNA fragments were phosphorylated and ligated leading to various sequence rearrangements shown at the bottom of the FIG. 3. Four hundred thirty-two forward and reverse oligos with an overhang of 6 codons from the IL-6R binding domain were used for PCR. A degenerate nucleotide was inserted at the first or second position of each codon. When ligated, these sequences generated a library of 1×10^13 different DNA sequences. The library of DNA sequences was taken through eight rounds of mRNA Display generating a peptide library. Eighteen of the most abundant peptides in the peptide library were synthesized in a linear form and tested for binding to IL-6 using Biacore. One of the peptides (#9) (“Peptide 9”) from the peptide library, with the sequence of […] The twelve non-terminal residues represent the PepFusion library-derived DNA sequences, while N-terminal serine and C-terminal glycine come from the flanking linkers and were kept as a precaution, in case linker sequences contributed to peptide interaction with its target.
# Binding reactions were performed in HBS-P/2% DMSO buffer (10 mM Hepes, pH 7.4, 150 mM NaCl, 0.05% P-20, 2% DMSO), which was filtered through […] filters and degassed before use. Biotinylated recombinant human IL-6 (IL-6-Biotin) was bound to the surface of a Biacore SA sensor chip of a Biacore T200 surface plasmon resonance unit as follows. The streptavidin surface of the chip (flow cells 1 and 2) was activated by injecting 20 μl of 1 M NaCl/50 mM NaOH at 20 μl/min, in 3 pulses. Biotinylated Recombinant Human IL6 was diluted with HBS-P buffer and an aliquot of 100 μl (2 micrograms/ml) was injected into flow cell 2 at 5 microliters/min to yield a signal of 1400 response units (RU) (10 microliters were injected). Any remaining activated residues on the streptavidin surface of flow cells 1 and 2 were blocked with 30 microliters 500 nM free Biotin.
# (§1) Affinity scouting assay was performed at a flow rate of 30 microliters/min at 25° C. The analyte (60 microliter aliquots of peptides, at concentrations of 20 μM in HBS-P/2% DMSO buffer) was injected into flow cells 1 and 2 and the association reaction was recorded. The surface was then washed with HBS-P/2% DMSO for 3 min and the dissociation of the analyte from the bound IL6 was followed over time. The surfaces of the flow cells were regenerated with 30 microliters of 10 mM NaOH, followed 50 microliters of HBS-P/2% DMSO buffer.
# as §1, with “Kinetics analysis of binding was performed” for “Affinity scouting assay was performed”, “concentrations of 0, 1.25 μM, 2.5 μM, 5 μM, 10 μM and 20 μM” for “concentrations of 20 μM”, “DMSO buffer. Sensorgrams were analyzed using BIAeveluation 3.2.1 software (Cytiva). Values from the reference flow cell were subtracted to obtain the values for specific binding. Data were globally fitted to the Langmuir model for a 1:1 mass transfer binding.” for “DMSO buffer.”
sequence,measurement,setting,value
"SVRDLLRRMCVFWG [Peptide 49, SVRDLLRRMCVFWG]","binding affinity compared with parent peptide 9, in words",Table 1,completely lost binding affinity
"SVRDLLSHNCHIVG [Peptide 43, SVRDLLSHNCHIVG]","binding affinity compared with parent peptide 9, in words",Table 1,completely lost binding affinity
"LEIRDLLRRMCHIVG [Peptide 26, LEIRDLLRRMCHIVG]","binding affinity compared with parent peptide 9, in words",Table 1,reduced binding affinity
"SVRDLLNRICHIVG [Peptide 21, SVRDLLNRICHIVG]","binding affinity compared with parent peptide 9, in words",Table 1,reduced binding affinity
"SVRDLQSTMCHIVG [Peptide 47, SVRDLQSTMCHIVG]","binding affinity compared with parent peptide 9, in words",Table 1,completely lost binding affinity
"SVRDLPRIMCHIVG [Peptide 31, SVRDLPRIMCHIVG]","binding affinity compared with parent peptide 9, in words",Table 1,reduced binding affinity
"SVRDLLRRMCHPRLG [Peptide 46, SVRDLLRRMCHPRLG]","binding affinity compared with parent peptide 9, in words",Table 1,reduced binding affinity
"SVRDANYRMCHIVG [Peptide 39, SVRDANYRMCHIVG]","binding affinity compared with parent peptide 9, in words",Table 1,completely lost binding affinity
"SVRDPHNRMCHIVG [Peptide 22, SVRDPHNRMCHIVG]","binding affinity compared with parent peptide 9, in words",Table 1,reduced binding affinity
"SVRIYLRRMCHIVG [Peptide 20, SVRIYLRRMCHIVG]","binding affinity compared with parent peptide 9, in words",Table 1,reduced binding affinity
"SVHIHLRRMCHIVG [Peptide 34, SVHIHLRRMCHIVG]","binding affinity compared with parent peptide 9, in words",Table 1,reduced binding affinity
"SNYTLLRRMCHIVG [Peptide 36, SNYTLLRRMCHIVG]","binding affinity compared with parent peptide 9, in words",Table 1,reduced binding affinity
"SVRDLHKMMCHIVG [Peptide 25, SVRDLHKMMCHIVG]","binding affinity compared with parent peptide 9, in words",Table 1,reduced binding affinity
"SVRDLLHGRCHIVG [Peptide 40, SVRDLLHGRCHIVG]","binding affinity compared with parent peptide 9, in words",Table 1,reduced binding affinity
"LGHRDLLRRMCHIVG [Peptide 29, LGHRDLLRRMCHIVG]","binding affinity compared with parent peptide 9, in words",Table 1,reduced binding affinity
"NERRDLLRRMCHIVG [Peptide 41, NERRDLLRRMCHIVG]",Kd,"Table 1, N and C termini not protected, cells printed in μM, read-out: KD (nM) P < 0.05",> 10 µM
"NQQLIEEIIQILHKIFEIL [CA11, NQQLIEEIIQILHKIFEIL, reference compound]",Kd,"Table 2, control peptides, nd = not detected, read-out: KD (nM) P < 0.05",50.75 ± 0.035 µM
same,Kd,"control peptides, read-out: KD",50 µM
"SVRDLLRMFCHIVG [Peptide 23, SVRDLLRMFCHIVG]","binding affinity compared with parent peptide 9, in words",Table 1,reduced binding affinity
